Results of single-concentration screens

Amino acid sequences for entries named in this document (tags omitted). Residues count along the entry.
UniProt P9WFT3, whole entry: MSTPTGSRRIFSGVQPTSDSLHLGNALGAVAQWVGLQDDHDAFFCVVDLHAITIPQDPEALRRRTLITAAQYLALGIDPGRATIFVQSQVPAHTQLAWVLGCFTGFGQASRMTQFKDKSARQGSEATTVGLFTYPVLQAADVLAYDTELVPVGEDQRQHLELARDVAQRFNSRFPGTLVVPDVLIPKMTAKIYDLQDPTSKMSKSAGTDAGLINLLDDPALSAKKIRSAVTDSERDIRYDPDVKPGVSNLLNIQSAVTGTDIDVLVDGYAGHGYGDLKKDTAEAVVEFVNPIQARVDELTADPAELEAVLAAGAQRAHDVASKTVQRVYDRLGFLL
UniProt I6X8D2, whole entry: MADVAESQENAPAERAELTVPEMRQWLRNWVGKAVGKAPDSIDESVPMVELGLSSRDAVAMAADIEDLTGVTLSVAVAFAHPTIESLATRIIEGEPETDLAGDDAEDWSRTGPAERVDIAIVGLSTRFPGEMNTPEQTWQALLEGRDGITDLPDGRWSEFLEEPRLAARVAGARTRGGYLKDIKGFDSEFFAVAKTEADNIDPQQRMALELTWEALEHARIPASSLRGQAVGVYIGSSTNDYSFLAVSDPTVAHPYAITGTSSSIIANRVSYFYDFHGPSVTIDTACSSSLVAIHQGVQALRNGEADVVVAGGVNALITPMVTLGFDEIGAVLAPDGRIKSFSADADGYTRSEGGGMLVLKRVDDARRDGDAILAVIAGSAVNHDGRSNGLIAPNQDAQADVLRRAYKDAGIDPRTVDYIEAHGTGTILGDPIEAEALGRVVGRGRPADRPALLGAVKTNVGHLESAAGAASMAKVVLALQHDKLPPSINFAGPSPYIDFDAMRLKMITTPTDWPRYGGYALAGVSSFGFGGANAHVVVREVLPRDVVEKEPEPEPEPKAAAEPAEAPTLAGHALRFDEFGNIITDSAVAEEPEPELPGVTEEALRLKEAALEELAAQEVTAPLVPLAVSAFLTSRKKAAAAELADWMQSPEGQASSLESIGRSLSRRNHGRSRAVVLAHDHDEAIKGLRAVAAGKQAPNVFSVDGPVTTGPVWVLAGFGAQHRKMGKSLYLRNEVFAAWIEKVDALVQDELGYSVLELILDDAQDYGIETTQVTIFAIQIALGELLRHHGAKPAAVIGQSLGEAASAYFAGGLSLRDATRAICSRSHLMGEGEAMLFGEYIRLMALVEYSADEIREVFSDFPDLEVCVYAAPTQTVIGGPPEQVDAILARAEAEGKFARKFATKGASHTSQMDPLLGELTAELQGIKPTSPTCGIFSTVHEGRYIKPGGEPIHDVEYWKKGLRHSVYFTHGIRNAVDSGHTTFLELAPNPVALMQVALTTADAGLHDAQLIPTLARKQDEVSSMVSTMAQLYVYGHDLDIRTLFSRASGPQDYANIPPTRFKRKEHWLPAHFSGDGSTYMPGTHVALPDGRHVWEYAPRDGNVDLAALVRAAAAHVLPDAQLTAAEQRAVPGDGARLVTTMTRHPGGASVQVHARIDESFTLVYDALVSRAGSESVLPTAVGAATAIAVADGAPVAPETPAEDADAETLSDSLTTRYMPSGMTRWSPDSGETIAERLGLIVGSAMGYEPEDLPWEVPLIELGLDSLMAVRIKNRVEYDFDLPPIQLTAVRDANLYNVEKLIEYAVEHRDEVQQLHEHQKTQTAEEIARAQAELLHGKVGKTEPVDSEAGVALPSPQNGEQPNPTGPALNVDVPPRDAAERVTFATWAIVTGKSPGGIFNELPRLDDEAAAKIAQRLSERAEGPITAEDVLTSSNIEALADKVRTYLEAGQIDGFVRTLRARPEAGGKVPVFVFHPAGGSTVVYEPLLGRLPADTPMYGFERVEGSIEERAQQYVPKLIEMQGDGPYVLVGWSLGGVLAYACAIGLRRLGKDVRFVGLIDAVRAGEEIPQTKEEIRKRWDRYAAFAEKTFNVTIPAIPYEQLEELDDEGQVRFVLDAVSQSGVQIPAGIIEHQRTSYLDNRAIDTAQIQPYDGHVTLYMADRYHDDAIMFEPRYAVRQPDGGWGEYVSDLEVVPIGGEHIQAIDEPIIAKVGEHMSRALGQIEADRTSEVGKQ
UniProt A4I591, 1-473: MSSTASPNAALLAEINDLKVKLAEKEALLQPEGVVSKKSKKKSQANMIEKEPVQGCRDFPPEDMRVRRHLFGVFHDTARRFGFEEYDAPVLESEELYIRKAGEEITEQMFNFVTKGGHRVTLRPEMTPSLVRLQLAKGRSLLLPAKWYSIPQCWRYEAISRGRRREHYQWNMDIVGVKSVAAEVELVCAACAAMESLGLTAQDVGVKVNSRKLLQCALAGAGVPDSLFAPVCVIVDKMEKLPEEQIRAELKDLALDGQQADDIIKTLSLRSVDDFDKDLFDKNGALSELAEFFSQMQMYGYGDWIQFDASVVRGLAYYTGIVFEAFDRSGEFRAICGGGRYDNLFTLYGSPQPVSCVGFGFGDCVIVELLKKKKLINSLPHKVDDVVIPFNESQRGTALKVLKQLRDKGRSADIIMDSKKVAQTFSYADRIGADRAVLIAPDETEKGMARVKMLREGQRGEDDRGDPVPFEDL
UniProt Q4DA54, 1-478: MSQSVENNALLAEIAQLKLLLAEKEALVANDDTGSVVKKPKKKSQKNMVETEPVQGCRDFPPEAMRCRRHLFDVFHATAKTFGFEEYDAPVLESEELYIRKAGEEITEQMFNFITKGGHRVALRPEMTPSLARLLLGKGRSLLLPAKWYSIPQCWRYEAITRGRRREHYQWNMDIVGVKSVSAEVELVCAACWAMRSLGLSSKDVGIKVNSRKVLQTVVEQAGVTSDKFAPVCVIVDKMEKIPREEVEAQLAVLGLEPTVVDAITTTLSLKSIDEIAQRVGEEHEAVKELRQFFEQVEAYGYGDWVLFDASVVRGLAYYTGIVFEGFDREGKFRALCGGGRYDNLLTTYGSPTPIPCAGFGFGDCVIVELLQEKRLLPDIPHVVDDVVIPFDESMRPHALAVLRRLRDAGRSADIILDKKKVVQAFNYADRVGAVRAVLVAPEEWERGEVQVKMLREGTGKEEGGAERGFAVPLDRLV

From ChEMBL document CHEMBL3988442, “University of Dundee, Small-Polar-MMV Screening Library” (2021).

A: 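Enzyme assay of tryptophanyl-tRNA synthetase; the read-out is not stated. Target: Tryptophan-tRNA ligase, Mycobacterium tuberculosis (UniProt P9WFT3). Concentration: 10 µM. Higher most likely means stronger inhibition; the record gives no direction and few retests gave an IC50. About 65,000 compounds were tested under these conditions; 0.098% (about 64) showed 50% or more at least once.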
B: 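Enzyme assay of the thioesterase domain of polyketide synthase 13; the read-out is not stated. Target: Polyketide synthase Pks13, Mycobacterium tuberculosis (UniProt I6X8D2). Tested at 30 µM. The record gives no direction; the compounds picked for IC50 retests had high values, so higher reads as stronger inhibition. Size under these conditions: about 67,000 compounds, about 300 of them at 50% or above in at least one test.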
C: 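Enzyme assay of histidyl-tRNA synthetase; the read-out is not stated. Target: Histidine-tRNA ligase, Leishmania infantum (UniProt A4I591). Tested at 30 µM. The record gives no direction; compounds that gave an IC50 in retests scored well above the rest, so higher reads as stronger inhibition. The assay is labelled LdHisRS but filed under L. infantum. About 69,000 compounds were tested under these conditions; 0.6% (about 410) showed 50% or more at least once.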
D: 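Enzyme assay of histidyl-tRNA synthetase; the read-out is not stated. Target: Histidine-tRNA ligase, Trypanosoma cruzi CL Brener (UniProt Q4DA54). Compounds at 30 µM. Higher reads as stronger inhibition (inferred: compounds with an IC50 in retests scored well above the rest). Of about 69,000 compounds tested this way, about 31 (0.045%) reached 50% or more in at least one test.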

Results are given as percent effect.
The record does not define 0% and 100%; most values in the screen are far below 50% and negative numbers occur (in some assays of this library far below -100).
This is an unselected part of the compounds tested.
A dash means the value is not listed here; it may have been measured.

compound | A | B | C | D
O=C(CNc1cc(-n2cnnn2)ccc1F)NCc1ccccc1 | 0.7712 | -5.076 | 14.81 | 3.067
Cc1nn(CC(C)C)c(C)c1CC(=O)N1CCCC(CNS(C)(=O)=O)C1 (stereo unspecified) | 0 | -4.15 | 3.261 | -1.98
CCc1cc(N(C)Cc2ccncn2)n2nccc2n1 | -0.161 | -6.79 | 3.279 | 7.2
COc1ccc(Cl)cc1CCNC(=O)NCc1cnn(C)c1C | -0.1971 | -19.41 | 18.58 | 2.212
COc1cc(CNc2cnn(C(C)(C)C)c(=O)c2Cl)ccn1 | -1.737 | -31.83 | 19.74 | 5.419
CC(c1cccnc1)N1CCN(CCO)CC1 (stereo unspecified) | 0.2564 | -12.69 | 12.9 | 1.235
Cc1nnc(CN(Cc2cccc(Cl)c2)C(C)C)o1 | -7.339 | -9.383 | 4 | 6.358
CCOc1ccccc1OC1CCN(C(=O)c2cnns2)CC1 | -5.844 | 8.553 | 14.55 | 7.602
Cc1nc(N2CCOCC2)nc2c1CCN(Cc1cccnc1)CC2 | -3.882 | -12.93 | 7.547 | -1.622
O=C(NCc1ccccn1)Nc1cc(C(F)(F)F)c[nH]c1=O | 1.652 | 5.577 | 33.85 | -1.149
COc1ccc(C[C@H]2CN(C(=O)c3ncccn3)CC[C@@H]2OC)cc1 | -1.744 | -16.13 | 3.846 | 4.854
COc1ccc(S(=O)(=O)NCc2cccnc2N(C)C)cc1 | -2.865 | -9.75 | 8.475 | 5.143
Cc1cc(C)nc(C2CCN(C(=O)c3cnc(N(C)C)nc3)C2)n1 (stereo unspecified) | -1.449 | 7.793 | 5.263 | 0.7463
COCC1c2c(cnn2CC2CC2)CCN1Cc1ccc(OC)cc1 (stereo unspecified) | -3.882 | -20.41 | 3.774 | 5.946
CN(C)Cc1nnc(C2CCN(c3ncccn3)CC2)n1C1CC1 | 5.078 | -2.838 | -12.12 | -1.058
Cc1ccc(C(=O)N(Cc2ccccc2F)C2CC2)c(=O)[nH]1 | 0.2974 | -5.037 | 30.14 | -0.5405
NS(=O)(=O)CCNC(=O)c1cc2ccccc2nc1N1CCCC1 | -7.787 | -5.952 | 13.51 | 16.67
CC(CNC(=O)c1cnc[nH]1)Oc1ccccc1Br (stereo unspecified) | -0.4591 | -3.192 | -3.614 | 0.4975
COc1ccc(C(O)CN2CC(n3nc(C)cc3C)C2)cc1 (stereo unspecified) | -5.711 | -26 | 21.43 | 13.26
c1cncc(-c2noc(CCNc3ncnc4c3CCNCC4)n2)c1 | -2.515 | - | 6.452 | 2.618
O=C(Cc1ccccc1)N1CCCC2(COCCN(CC3CC3)C2)C1 (stereo unspecified) | -2.764 | -6.705 | 6.195 | 8.8
COc1ccccc1-n1nc(-c2ccco2)n(CC(N)=O)c1=O | -1.288 | -3 | 6.557 | 5.6
CC(=O)N1CCC(c2nccnc2-c2ccc(C(=O)O)cc2)CC1 | - | -4.279 | 13.54 | 8.511
O=C(CCC1CCCC1)NCCn1nc(C2CCNC2)c2cccnc21 (stereo unspecified) | 0.3524 | -29.83 | 0.7299 | -0.5464
COc1ccc(-c2noc(Cn3cc4c(n3)CCC4)n2)c(OC)c1OC | -1.149 | -6.653 | 6.667 | -2.89
O=C1CN(C(=O)c2ccc(Cl)cc2)CC(O)CN1Cc1cccs1 (stereo unspecified) | - | 15.98 | 10.2 | 7.865
Cc1csc(N2CCN(CC(=O)NCc3ccccn3)CC2C)n1 (stereo unspecified) | 2.322 | -8.21 | 7.339 | 3.79
COCc1noc(-c2ccc(N(C)Cc3c(C)n[nH]c3C)nc2)n1 | 2.246 | 17.08 | 8.8 | 5.528
CCc1ncc2c(n1)CN(c1cc(N3CCN(C)CC3)nc(N)n1)C2 | -0.9524 | -6.425 | 8.85 | 5.357
COc1cc(C)ccc1OCC(=O)Nc1ccnc(OCCN(C)C)c1 | 1.371 | 18.71 | -6.579 | 10.34
Cn1cc(C2(C)CN(Cc3ccc(N4CCCC4)nc3)CCO2)cn1 (stereo unspecified) | -3.505 | -15.63 | 3.896 | 3.448
CCN(CC)S(=O)(=O)CCNc1nnc(C(C)C)s1 | -6.703 | 1.363 | 3.39 | 1.463
CC(Cn1cccn1)NC(=O)NCCc1ccc(Cl)s1 (stereo unspecified) | -1.338 | -48.34 | -1.124 | 0
Cc1ccc(CSc2nc(N)cc(NCCS(=O)(=O)N(C)C)n2)cc1 | 8.867 | -28.89 | 14.47 | 7.389
O=C1NC[C@H]2CN(Cc3nccs3)CCN12 | -3.625 | 30.07 | 19.44 | 3.483
CSCCC(=O)N1CCC(c2nccn2CCN(C)C)CC1 | 0.9382 | -22.31 | 6.612 | 5.102
CCc1nnc(CN(CC)C(=O)C2CCC(=O)N(C3CCCC3)C2)o1 (stereo unspecified) | 2.899 | -17.47 | 6.557 | 2.4
COc1nn(C)c2c1CCCN(S(=O)(=O)c1cccc(F)c1)C2 | -2.634 | -31.32 | 35.53 | 7.609
CCc1ccc(C(=O)N2CCCC(c3nn[nH]n3)C2)cc1 (stereo unspecified) | -4.115 | -23.1 | 5.714 | 1.031
COc1ccc(CNC2CCN(c3ccccc3)C2)cc1O (stereo unspecified) | 15.66 | -14.68 | 21.93 | 0
Cc1cccc(NC(=O)NC2CCC3(C2)OCCO3)c1Cl (stereo unspecified) | 3.155 | -16.28 | 12.36 | 6.736
Cc1nc2n(n1)CC(NCC(=O)N(C)Cc1cccs1)CC2 (stereo unspecified) | 9.065 | -1.065 | 17.09 | -0.5405
CCN(Cc1nc2c(cnn2C)c(=O)[nH]1)c1cc(C)cc(C)c1 | 10.86 | -6.102 | 2.609 | 1.127
O=C(c1cccc(F)c1)N1C[C@H]2CCCC(OCc3cccnc3)[C@H]2C1 (stereo partly specified) | 5.045 | -29.83 | 8.571 | 0
CC1COCCN1Cc1nc(Cc2ccccc2)no1 (stereo unspecified) | -0.432 | 2.809 | 11.9 | 5.941
OCCn1nccc1C1CCN(CCOc2ccc(Cl)cc2)CC1 | -3.123 | 2.599 | 16.67 | 4.046
CCc1nccn1C1CCCN(C(=O)c2ccn(C)c(=O)c2)C1 (stereo unspecified) | 0.3749 | -25.87 | 18.75 | 3.191
Cc1csc(CNC(=O)NCC(O)c2ccc(F)c(F)c2)n1 (stereo unspecified) | -0.6173 | -14.61 | 15.07 | 5.911
N#Cc1cccc(OCc2ccoc2C(=O)N2CCCCC2)c1 | 2.294 | -22.12 | 15.93 | 2.632
CCOc1ncccc1CNC(=O)c1csc(Br)c1 | -2.642 | -4.367 | 7.937 | 0.5128
O=C(NCCn1ccnc1)N1CCN(Cc2cccs2)CC1 | -1.394 | -14.44 | 0 | 3.422
CC(=O)c1cc(Br)cc(F)c1OCC(=O)NC1CC1 | 0.8811 | -3.252 | 12.24 | 8
CC(C)CCN1C2(CCN(C(=O)C3(C)CC3)C2)c2ccccc2S1(=O)=O (stereo unspecified) | -6.117 | -10.1 | 1.389 | -2.857
COC(=O)c1cc(CN2CCN(c3ncccc3C)CC2)ccc1O | -7.717 | -11.42 | 3.279 | -1.01
CN(C)c1ncccc1CNS(=O)(=O)c1ccccc1Cl | -3.046 | -1.457 | 7.692 | 4
Cc1ccc(CN(C(=O)NC2CCS(=O)(=O)C2)C2CC2)o1 (stereo unspecified) | -0.6256 | -3.127 | 14.67 | 3.704
CCN1CCC2(CC1)CC(CC(=O)N(C)C)c1ccc(F)cc12 (stereo unspecified) | - | -27.8 | -7.921 | -2.513
CN(CCN1CCCCC1)C(=O)c1cc(CN2CCOCC2)on1 | 3.065 | -19.67 | 26.92 | 4.132
Cc1cc(C(=O)N2CC[C@H](OCC3CC3)[C@@H]2Cc2cccnc2)no1 | -1.994 | -9.131 | 5.66 | 4.865
COc1ccc(CCC(=O)N(C)CCN2CCOCC2)cc1OC | -6.101 | 6.558 | 0 | 1.667
O=C(Nc1ncc[nH]1)c1cc(-c2cccnc2)n[nH]1 | 4.111 | 3.691 | 10.87 | 8
CC(C)C1=NOC2(CCN(Cc3c[nH]c4ccccc34)CC2)C1 | 0.605 | -18.56 | 2.759 | -0.5917
CN(Cc1cc(Br)cs1)Cc1nnsc1Cl | -0.3564 | -10.08 | 11.67 | 4.348
CN(CCOc1ccccc1F)C1CCOC1=O (stereo unspecified) | 0.8043 | -17.18 | 9.333 | 4.762
CC1c2ncc(COc3cccnc3)n2CCN1C(=O)C1=CCCC1 (stereo unspecified) | 1.206 | -31.12 | 13.59 | -1.639

Once more, the final 8:

compound	A	B	C	D
CN(CCN1CCCCC1)C(=O)c1cc(CN2CCOCC2)on1	3.065	-19.67	26.92	4.132
Cc1cc(C(=O)N2CC[C@H](OCC3CC3)[C@@H]2Cc2cccnc2)no1	-1.994	-9.131	5.66	4.865
COc1ccc(CCC(=O)N(C)CCN2CCOCC2)cc1OC	-6.101	6.558	0	1.667
O=C(Nc1ncc[nH]1)c1cc(-c2cccnc2)n[nH]1	4.111	3.691	10.87	8
CC(C)C1=NOC2(CCN(Cc3c[nH]c4ccccc34)CC2)C1	0.605	-18.56	2.759	-0.5917
CN(Cc1cc(Br)cs1)Cc1nnsc1Cl	-0.3564	-10.08	11.67	4.348
CN(CCOc1ccccc1F)C1CCOC1=O (stereo unspecified)	0.8043	-17.18	9.333	4.762
CC1c2ncc(COc3cccnc3)n2CCN1C(=O)C1=CCCC1 (stereo unspecified)	1.206	-31.12	13.59	-1.639